{"source": "PubChem BioAssay AID652259 (Drosophila RNAi Screening Center, 2013)", "screen": "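Genome-wide hunt for genes that control Wingless pathway activity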 (primary screen)", "system": "Drosophila clone 8 imaginal disc epithelial cells", "reagent": "long dsRNA against Drosophila genes", "challenge": "pathway stimulated by co-transfected Wingless expression plasmid", "read-out": "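Dual luciferase reads per well after Wingless plasmid stimulation: reporter firefly light and Renilla control light; activity is firefly divided by Renilla, a ratio not deposited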", "direction": "firefly reporter light: higher = more Wg reporter light, before normalisation; Renilla control light: higher = more transfected or surviving cells", "rule for the call": "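Strong candidates differ from their plate mean by at least two out of four per-plate statistical tests; weak candidates meet just one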", "calls": "active = candidate regulator (raises or lowers reporter); inactive = not a candidate", "note": "The deposit covers about 22,000 reagents; below is an unselected part of those that have a named target and a result. In the full data, 233 (1.1%) are marked active. 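Light values are raw, unnormalised plate reads; the ratio scores behind the reporter calls were not deposited.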 Entries without a mark were called inactive. A plus sign joins genes that one reagent is predicted to hit. No sequences are given here. Not given: the amount of reagent, the time to read-out, the dose of the treatment."}
{"target": "RabGGTb", "DRSC id": "DRSC00804", "firefly reporter light, replicate 1": 11506, "Renilla control light, replicate 1": 4342}
{"target": "CG17780 + CG17781", "DRSC id": "DRSC15266", "firefly reporter light, replicate 1": 15052, "Renilla control light, replicate 1": 11155}
{"target": "Inx6", "DRSC id": "DRSC20579", "firefly reporter light, replicate 1": 23466, "Renilla control light, replicate 1": 11224}
{"target": "Camp", "DRSC id": "DRSC07004", "firefly reporter light, replicate 1": 10556, "Renilla control light, replicate 1": 3506}
{"target": "RpL37A", "DRSC id": "DRSC02899", "firefly reporter light, replicate 1": 5179, "firefly reporter light, replicate 2": 9077, "Renilla control light, replicate 1": 1037, "Renilla control light, replicate 2": 1968}
{"target": "Trpgamma", "DRSC id": "DRSC03626", "firefly reporter light, replicate 1": 2818, "firefly reporter light, replicate 2": 9563, "Renilla control light, replicate 1": 1368, "Renilla control light, replicate 2": 4824}

2 entries from above, set out differently.
target,DRSC id,"firefly reporter light, replicate 1","firefly reporter light, replicate 2","Renilla control light, replicate 1","Renilla control light, replicate 2"
Inx6,DRSC20579,23466,,11224,
Camp,DRSC07004,10556,,3506,

Continued.
{"target": "Mlp60A", "DRSC id": "DRSC04623", "firefly reporter light, replicate 1": 2057, "firefly reporter light, replicate 2": 5617, "Renilla control light, replicate 1": 306, "Renilla control light, replicate 2": 1192}
{"target": "Mlp60A", "DRSC id": "DRSC22233", "firefly reporter light, replicate 1": 4.94e5, "firefly reporter light, replicate 2": 6.09e5, "Renilla control light, replicate 1": 2.22e5, "Renilla control light, replicate 2": 2.75e5}
{"target": "Mlp60A", "DRSC id": "DRSC22481", "firefly reporter light, replicate 1": 6.56e5, "firefly reporter light, replicate 2": 5.57e5, "Renilla control light, replicate 1": 1.76e5, "Renilla control light, replicate 2": 22696}
{"target": "CG15561", "DRSC id": "DRSC15100", "firefly reporter light, replicate 1": 11202, "Renilla control light, replicate 1": 4534}
{"target": "CG33203", "DRSC id": "DRSC14874", "firefly reporter light, replicate 1": 9372, "Renilla control light, replicate 1": 3890}
{"target": "CG33203", "DRSC id": "DRSC14876", "firefly reporter light, replicate 1": 8608, "Renilla control light, replicate 1": 5648}
{"target": "CG33203", "DRSC id": "DRSC14877", "firefly reporter light, replicate 1": 8978, "firefly reporter light, replicate 2": 6.68e5, "Renilla control light, replicate 1": 6487, "Renilla control light, replicate 2": 3.67e5}
